# Experimental data published in PubChem BioAssay (NCATS).
# Inconclusive results, whose numbers are uncertain, are shown with a selection of clear calls. A potency beside an inconclusive call is a rough fit, not a confirmed value. Activity calls are given as the source filed them. Calls come from the whole dose curve; as a rule, active = well fitted cell-killing curve with a large enough effect; inconclusive = small, poorly fitted or top-dose-only effect, or effect the other way, or another doubt; inactive = no such curve, though single readings can be large or run the other way.
# Assay: Identifying Small Molecule Inhibitors of Pancreatic Cancer Stem Cells (Panc1, Adherent) (AID 1259362);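 for viability, % of control: compound exposure lasted 48 h before the viability read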
# Conditions: Potency: viability unless noted; viability, % of control: at 46.1 µM (top of the series) unless noted
# Text: Progenitor-like cancer cells, often referred to as cancer stem cells (CSC), are believed to be the drivers of therapeutic resistance and rapid recurrence. CSCs are postulated to reside in specific niches characterized by low oxygen tension, limited nutrient supply, and high redox load. Selectively targeting CSC, alone or in combination with cytotoxic agents, as a means to produce durable remissions is an appealing concept. Modeling these cells in in vitro setting is an important step in finding new therapies and/or targets. Multiple reports highlight that forcing cells in culture into 3-dimensionaly architectures (spheroids) re-establishes key progenitor-like transcriptional signatures. Pancreatic cancer is among the diseases with the most dismal outlook which is driven, largely, by recurance following front-line therapies. […] In hopes of deriving new insight into the targeting of these pancreatic CSCs we examined three established pancreatic cancer cell lines in cytotoxicity assays versus a collection of approved and investigational drugs. Importantly, we screened these lines as traditional monolayer (2D) and spheroid (3D) formats to gain an appreciation of agents with differential activity.
# Multicellular tumor spheroids from Panc1, MiaPaCa-2, and the primary low-passage tissue culture line SB.06 were seeded in stem cell media (SCM) in nonadherent 6-well plates coated with hydrogel (Corning Life Sciences, Chelmsford, Mass) and pancreatic spheres generated for 14 days before screening. Cells were seeded into 1536-well solid-bottom white tissue culture treated Greiner Bio One Plates (789173-F) using a MultiDrop Combi (Thermofisher Scientific) dispenser and a small sterile cassette. One column was media alone to be used as a :"no cells" control. The plates were then covered with sterilized stainless steel gasketed lids from Kalypsys. After allowing cells to attach for 4 hours, 23 nL of test compound or control (negative control DMSO and positive control 9.2 uM Bortezomib-final) were added from a 1536-well polypropylene compound source plate to each well using a 1536 head pin tool from Kalypsys. Cells were then incubated for 48 hours at 37C, 95% relative humidity and 5% CO2. After 48 hours, plates were removed from the incubator and 3 uL of CellTiter-Glo (Promega) was added using an Aurora Flying Reagent Dispenser Bioraptor. Plates were incubated at room temperature for 10 minutes prior to reading the luminescence on the Viewlux (PerkinElmer). The relative luciferase units are used to calculate the percent activity using the activity of DMSO in the cells and no cells columns for normalization of no inhibition and full inhibition respectively.
# Potency is the fitted concentration of half-maximal effect.
SMILES,Potency,"viability, % of control"
COc1cccc2c1C(=O)c1c(O)c3c(c(O)c1C2=O)C[C@@](O)(C(=O)CO)C[C@@H]3O[C@H]1C[C@H](N)[C@H](O)[C@H](C)O1,"inconclusive: 9.35 µM [cytotoxic, partial curve, poor fit]",–
Cc1ccc(C(N)=O)cc1Nc1nccc(-c2cn(C(C)C)c3cnccc23)n1,"inconclusive: 0.0023 µM [rising, full curve, poor fit]",–
Cc1nn(Cc2ccccc2Cl)c(C)c1CN(C)CC(O)COc1ccc(Cl)cc1 (stereo not given),"inconclusive: 29.6 µM [cytotoxic, single point]",–
c1ccc2c(CCNc3ccc(Nc4ccncc4)cc3)c[nH]c2c1,"inconclusive: 29.6 µM [cytotoxic, single point]",–
CCN(CC)CCCCNc1ncc2cc(-c3cc(OC)cc(OC)c3)c(NC(=O)NC(C)(C)C)nc2n1,inactive,–
CCC(C)(C)C(=O)O[C@H]1C[C@@H](C)C=C2C=C[C@H](C)[C@H](CC[C@@H]3C[C@@H](O)CC(=O)O3)[C@H]21,–,inconclusive: 90.3% [at 15.4 µM]
C#Cc1cccc(Nc2ncnc3cc(OC)c(OCCCCCCC(=O)NO)cc23)c1,"inconclusive: 5.9 µM [cytotoxic, partial curve]",–
CC(C)C[C@H](NC(=O)[C@H](Cc1ccccc1)NC(=O)c1cnccn1)B(O)O,active: 0.0148 µM,–
COc1cc2c(Nc3ccc(Br)cc3F)ncnc2cc1OCC1CCN(C)CC1,"inconclusive: 33.2 µM [cytotoxic, single point]",–
CN(C)CCN(C)C(=O)c1ccc(NC(=O)Nc2ccc(-c3nc(N4CCOCC4)c4ccn(CC(F)(F)F)c4n3)cc2)cc1,active: 14.8 µM,–
Clc1ccc(Nc2nnc(Cc3ccncc3)c3ccccc23)cc1,inconclusive: 0.001 µM,–
Nc1nc(Nc2ccc(S(N)(=O)=O)cc2)nn1C(=O)c1c(F)cccc1F,"inconclusive: 33.2 µM [cytotoxic, single point]",–
Cc1cc2c(C(C)C)c(O)c(O)c(C=O)c2c(O)c1-c1c(C)cc2c(C(C)C)c(O)c(O)c(C=O)c2c1O,"inconclusive: 18.7 µM [cytotoxic, partial curve]",–
CCOc1cc(N2CCC(O)CC2)ccc1Nc1ncc2c(n1)N(C)c1ccccc1C(=O)N2C,"inconclusive: 20.9 µM [cytotoxic, single point]",–
CN1CC[C@@H](c2c(O)cc(O)c3c(=O)cc(-c4ccccc4Cl)oc23)[C@@H](O)C1,active: 0.132 µM,–
CCn1c(-c2nonc2N)nc2cnc(Oc3cccc(NC(=O)c4ccc(OCCN5CCOCC5)cc4)c3)cc21,inactive,–
CC1(CN2CCC(n3c(=O)[nH]c4ccccc43)CC2)OCc2ccccc2-n2cccc21 (stereo not given),"inconclusive: 37.2 µM [cytotoxic, single point]",–
COc1ccc2c3n(c(=NC(=O)c4cccnc4)nc2c1OC)CCN3,active: 2.35 µM,–
COc1ccc(-c2ccc3c(N4CCOCC4)nc(N4C[C@@H](C)O[C@@H](C)C4)nc3n2)cc1CO,"inconclusive: 0.0118 µM [rising, full curve, poor fit]",–
CCN1CCN(CC(=O)Nc2ccc(-c3cccc4c(=O)cc(N5CCOCC5)oc34)c3sc4ccccc4c23)CC1,active: 23.5 µM,–

SMILES,Potency,"viability, % of control"
C[C@@H](Oc1cc(-c2cnn(C3CCNCC3)c2)cnc1N)c1c(Cl)ccc(F)c1Cl,"inconclusive: 14.8 µM [cytotoxic, partial curve, poor fit]",–
CS(=O)(=O)c1ccc(C(=O)Nc2ccc(Cl)c(-c3ccccn3)c2)c(Cl)c1,"inconclusive: 0.0047 µM [rising, full curve, poor fit]",–
Cc1cc(SCc2sc(-c3ccc(C(F)(F)F)cc3)nc2C)ccc1OCC(=O)O,"inconclusive: 2.64 µM [cytotoxic, full curve, poor fit]",–
Cc1c(C)c2c(c(C)c1O)CCC(C)(COc1ccc(CC3SC(=O)NC3=O)cc1)O2 (stereo not given),inactive,–
O=C(c1cc(Cc2n[nH]c(=O)c3ccccc23)ccc1F)N1CCN(C(=O)C2CC2)CC1,"inconclusive: 26.4 µM [cytotoxic, partial curve, poor fit]",–
CCCCc1nc2cc(C=CC(=O)NO)ccc2n1CCN(CC)CC,"inconclusive: 2.64 µM [cytotoxic, full curve]",–
Cc1ccc(C(=O)Nc2cccc(C(F)(F)F)c2)cc1-c1ccc2nc(NCCN3CCOCC3)ncc2c1,active: 11.8 µM,–
Cc1nc2cnc3ccc(C#Cc4cccnc4)cc3c2n1-c1ccc(C(C)(C)C#N)cc1,"inconclusive: 9.35 µM [cytotoxic, partial curve]",–
COC(=O)c1ccc2c(C(=Nc3ccc(N(C)C(=O)CN4CCN(C)CC4)cc3)c3ccccc3)c(O)[nH]c2c1,"inconclusive: 4.18 µM [cytotoxic, partial curve]",–
COc1ccccc1[C@H](c1cccc2ccccc12)[C@@](C)(C#N)C(=O)N1CCC(c2cccc(C(F)(F)F)c2)CC1,inactive,–
Cc1ccc(S(=O)(=O)Nc2cc(Cl)ccc2C(=O)Nc2nc(-c3ccccc3)cs2)cc1,"inconclusive: 2.64 µM [cytotoxic, full curve]",–
CC[C@@]1(O)C(=O)OCc2c1cc1n(c2=O)Cc2cc3c(CN(C)C)c(O)ccc3nc2-1,"inconclusive: 0.118 µM [cytotoxic, full curve]",–
Nc1ncn([C@@H]2O[C@H](CO)[C@@H](O)[C@H]2O)c(=O)n1,inactive,–
CCN1CCN(Cc2ccc(-c3cc4c(N[C@H](C)c5ccccc5)ncnc4[nH]3)cc2)CC1,"inconclusive: 4.69 µM [cytotoxic, partial curve, poor fit]",–
N#CCNC(=O)c1ccc(-c2ccnc(Nc3ccc(N4CCOCC4)cc3)n2)cc1,"inconclusive: 23.5 µM [cytotoxic, partial curve, poor fit]",–
COc1cc2c(Oc3ccc4[nH]c(C)cc4c3F)ncnc2cc1OCCCN1CCCC1,"inconclusive: 26.4 µM [cytotoxic, partial curve]",–
Fc1cc(-c2cccc3ncc(-c4cnn(C5CCNCC5)c4)nc23)cc(F)c1CN1CCOCC1,"inconclusive: 13.2 µM [cytotoxic, partial curve, poor fit]",–
OCCn1cc(-c2cnc3nnn(Cc4ccc5ncccc5c4)c3n2)cn1,–,inconclusive: 104%
C#Cc1cccc(Nc2ncnc3cc(OCCOC)c(OCCOC)cc23)c1,inactive,–
CC(C)Oc1cc(Nc2nc(N[C@@H](C)c3ccc(F)cn3)ncc2Cl)[nH]n1,–,inconclusive: 96.8%

# Individual results from the list:
# Entry for Cc1nc2cnc3ccc(C#Cc4cccnc4)cc3c2n1-c1ccc(C(C)(C)C#N)cc1 under Potency: inconclusive: 9.35 µM [cytotoxic, partial curve]
# Entry for Cc1ccc(C(=O)Nc2cccc(C(F)(F)F)c2)cc1-c1ccc2nc(NCCN3CCOCC3)ncc2c1 under Potency: active: 11.8 µM
